In paper PMC10393194 one finds binding data, which are given here for two molecules.

Assay [1] concerns the target T1, Sub2-TS (hpr1-FLAG-3C-ProtA/Sub2-TS yeast strain) (S. cerevisiae) (UniProt Q07478).
T1 sequence: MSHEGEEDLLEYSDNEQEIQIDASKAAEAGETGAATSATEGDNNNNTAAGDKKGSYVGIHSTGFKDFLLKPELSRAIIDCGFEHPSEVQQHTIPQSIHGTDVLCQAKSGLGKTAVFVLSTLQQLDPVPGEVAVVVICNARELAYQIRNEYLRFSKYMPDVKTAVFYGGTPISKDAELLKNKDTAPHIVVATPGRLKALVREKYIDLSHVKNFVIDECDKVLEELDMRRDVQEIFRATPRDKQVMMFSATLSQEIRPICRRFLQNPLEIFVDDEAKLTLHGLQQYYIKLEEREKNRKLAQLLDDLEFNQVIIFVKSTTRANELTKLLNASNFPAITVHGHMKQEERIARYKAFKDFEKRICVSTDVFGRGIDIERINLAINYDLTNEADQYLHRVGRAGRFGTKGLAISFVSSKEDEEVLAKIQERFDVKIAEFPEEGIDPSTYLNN
Nature of the assay: affinity purification with mass spectrometry; two-step affinity capture from cryo-ground yeast lysate: protein A tag on anti-protein A IgG magnetic beads, 3C protease elution, then Twin-Strep tag on Strep-Tactin beads (porous or nonporous); 50 mM potassium phosphate pH 8, 0.1% NP40, 4°C; SDS eluates on Coomassie-stained SDS-PAGE, bands identified by peptide mass fingerprinting.

The target of assay [2] is T2, Hpr1-TS (hpr1-TS/Sub2-FLAG-3C-ProtA yeast strain) (S. cerevisiae) (UniProt P17629).
T2 sequence: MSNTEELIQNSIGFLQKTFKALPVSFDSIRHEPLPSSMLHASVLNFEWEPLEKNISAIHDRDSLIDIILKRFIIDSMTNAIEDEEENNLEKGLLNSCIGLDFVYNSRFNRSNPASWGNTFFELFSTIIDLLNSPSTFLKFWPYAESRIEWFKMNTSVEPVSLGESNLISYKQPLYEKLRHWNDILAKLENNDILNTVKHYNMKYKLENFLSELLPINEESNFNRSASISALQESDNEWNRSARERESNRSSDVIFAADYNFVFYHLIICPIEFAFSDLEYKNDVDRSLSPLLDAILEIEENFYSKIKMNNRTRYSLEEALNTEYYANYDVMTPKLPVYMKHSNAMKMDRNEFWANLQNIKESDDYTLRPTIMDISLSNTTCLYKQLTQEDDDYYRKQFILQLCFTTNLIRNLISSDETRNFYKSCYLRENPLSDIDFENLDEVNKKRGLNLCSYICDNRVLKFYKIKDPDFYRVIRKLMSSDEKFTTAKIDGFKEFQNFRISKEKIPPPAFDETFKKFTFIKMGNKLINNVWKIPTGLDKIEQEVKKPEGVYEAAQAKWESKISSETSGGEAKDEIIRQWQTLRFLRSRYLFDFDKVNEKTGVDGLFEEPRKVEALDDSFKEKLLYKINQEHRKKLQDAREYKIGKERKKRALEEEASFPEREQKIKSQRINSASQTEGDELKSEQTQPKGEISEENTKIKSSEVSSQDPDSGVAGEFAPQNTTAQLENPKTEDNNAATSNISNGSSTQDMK
As to the kind of experiment: affinity purification with mass spectrometry; as the two-step affinity capture (Sub2-ProtA first, Hpr1-TS second), with RNase A/T1 mix treatment on beads prior to elution from the second affinity step; SDS eluates and unbound fractions on Coomassie-stained SDS-PAGE.

Assay [3] has as its target T2, Hpr1-TS (hpr1-TS/Sub2-FLAG-3C-ProtA yeast strain) (S. cerevisiae). As to the kind of experiment: affinity purification with mass spectrometry; two-step affinity capture from cryo-ground yeast lysate: protein A tag on anti-protein A IgG magnetic beads, 3C protease elution, then Twin-Strep tag on Strep-Tactin beads (porous or nonporous); 50 mM potassium phosphate pH 8, 0.1% NP40, 4°C; SDS eluates on Coomassie-stained SDS-PAGE, bands identified by peptide mass fingerprinting.

Assay [4] has the same target. Nature of the assay: affinity purification with mass spectrometry; as the native two-step capture with iBAQ LC-MS/MS, with on-bead benzonase treatment prior to elution from the second affinity step; eluate and released fraction analysed.

These are yes or no findings as the source states them, for the method shown. Binding seen in cells or lysates may run through a third protein. These calls come from enrichment with a bait or labelling near it, and not all partners need be listed. Where a sequence is shown, tags or fusion partners need not be part of it.

B1: Hpr1-FLAG-3C-ProtA (hpr1-FLAG-3C-ProtA/Sub2-TS yeast strain) (protein, UniProt P17629 1-752)
chain: MSNTEELIQNSIGFLQKTFKALPVSFDSIRHEPLPSSMLHASVLNFEWEPLEKNISAIHDRDSLIDIILKRFIIDSMTNAIEDEEENNLEKGLLNSCIGLDFVYNSRFNRSNPASWGNTFFELFSTIIDLLNSPSTFLKFWPYAESRIEWFKMNTSVEPVSLGESNLISYKQPLYEKLRHWNDILAKLENNDILNTVKHYNMKYKLENFLSELLPINEESNFNRSASISALQESDNEWNRSARERESNRSSDVIFAADYNFVFYHLIICPIEFAFSDLEYKNDVDRSLSPLLDAILEIEENFYSKIKMNNRTRYSLEEALNTEYYANYDVMTPKLPVYMKHSNAMKMDRNEFWANLQNIKESDDYTLRPTIMDISLSNTTCLYKQLTQEDDDYYRKQFILQLCFTTNLIRNLISSDETRNFYKSCYLRENPLSDIDFENLDEVNKKRGLNLCSYICDNRVLKFYKIKDPDFYRVIRKLMSSDEKFTTAKIDGFKEFQNFRISKEKIPPPAFDETFKKFTFIKMGNKLINNVWKIPTGLDKIEQEVKKPEGVYEAAQAKWESKISSETSGGEAKDEIIRQWQTLRFLRSRYLFDFDKVNEKTGVDGLFEEPRKVEALDDSFKEKLLYKINQEHRKKLQDAREYKIGKERKKRALEEEASFPEREQKIKSQRINSASQTEGDELKSEQTQPKGEISEENTKIKSSEVSSQDPDSGVAGEFAPQNTTAQLENPKTEDNNAATSNISNGSSTQDMK
With B1, in assay [1], the binding result is listed as “binds”.

B2: Sub2-FLAG-3C-ProtA (hpr1-TS/Sub2-FLAG-3C-ProtA yeast strain) (protein, UniProt Q07478 1-446)
chain: MSHEGEEDLLEYSDNEQEIQIDASKAAEAGETGAATSATEGDNNNNTAAGDKKGSYVGIHSTGFKDFLLKPELSRAIIDCGFEHPSEVQQHTIPQSIHGTDVLCQAKSGLGKTAVFVLSTLQQLDPVPGEVAVVVICNARELAYQIRNEYLRFSKYMPDVKTAVFYGGTPISKDAELLKNKDTAPHIVVATPGRLKALVREKYIDLSHVKNFVIDECDKVLEELDMRRDVQEIFRATPRDKQVMMFSATLSQEIRPICRRFLQNPLEIFVDDEAKLTLHGLQQYYIKLEEREKNRKLAQLLDDLEFNQVIIFVKSTTRANELTKLLNASNFPAITVHGHMKQEERIARYKAFKDFEKRICVSTDVFGRGIDIERINLAINYDLTNEADQYLHRVGRAGRFGTKGLAISFVSSKEDEEVLAKIQERFDVKIAEFPEEGIDPSTYLNN
In the case of B2, the binding entry in assay [2], in assay [3] and in assay [4] was “binds” in each case.
